Data published in the AptaBench aptamer set (doi:10.1093/nar/gkaf219).

Tested on: DNA aptamer or structured DNA GGGACGACAGGGATTCGCGGATTCGGAGAAAAGGGCTCGTACGTCGTCCC
Conditions: 10 mM Tris-HCl, pH 7.4

**Q.** How did the Kd turn out when CN1CC[C@]23c4c5ccc(O)c4O[C@H]2[C@@H](O)C=C[C@H]3[C@H]1C5 was run?
**A.** Its Kd is 22.2 µM.
